PubChem BioAssay AID504808 | Drosophila RNAi Screening Center, 2011
The screen tested about 21,000 reagents; below is an unselected part of those with a known target gene and a result. In the full data, 18 (0.084%) got an active call. 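Raw counts without plate normalisation, one of two replicates; the ratio scores behind the calls were not deposited.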 Entries without a mark were called inactive. The numbers tell different reagents against one gene apart. Names joined by + are all predicted targets of the reagent. Not stated in the record: the amount of reagent, the time to read-out.

- Assay: 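Chromatin factors that keep E2F targets switched off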 (primary screen)
- Cell system: Drosophila S2 cells
- Knock-down reagent: long dsRNA against Drosophila genes
- Detection: 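Dual luciferase plate measurements; E2F-specific signal taken as firefly over Renilla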
- Scale: E2F firefly: higher = more E2F reporter activity; Renilla normaliser: higher = more normaliser reporter signal
- Active means: 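a knock-down counted as active when the firefly/Renilla E2F signal rose above 50%, a threshold chosen arbitrarily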

gene | reagent | E2F firefly, rep 1 | Renilla normaliser, rep 1
Ugt37C2 | 1 | 1.01e5 | 4381
SsRbeta | 1 | 67644 | 3408
TwdlV | 1 | 1.53e5 | 6830
Dus2 | 1 | 7859 | 740
CG5895 | 1 | 1.75e5 | 7316
CG14007 | 1 | 1.24e5 | 5262
Chchd2 | 1 | 2.48e5 | 8069
Acp53C14a | 1 | 1.49e5 | 5118
CG18367 | 1 | 1.55e5 | 4835
ninaC | 1 | 1.00e5 | 3941
CG40006 | 1 | 1.24e5 | 4558
CG40006 | 2 | 1.37e5 | 4671
CG40006 | 3 | 1.14e5 | 4221
CG40006 | 4 | 1.20e5 | 4505
Polr1F | 1 | 1.04e5 | 4611
Cyp309a1 | 1 | 1.67e5 | 5544
CG7766 | 1 | 8208 | 652
CG9646 | 1 | 1.54e5 | 5239
Fpps | 1 | 3343 | 189
mts | 1 | 79811 | 3564
CG14301 | 1 | 1.45e5 | 7862
Hsp60A | 1 | 8006 | 776
CG7239 | 1 | 68368 | 3272
mRpS18A | 1 | 1.55e5 | 6953
CG12920 | 1 | 1.44e5 | 4953
m-cup | 1 | 1.24e5 | 6126
CG12818 | 1 | 1.45e5 | 5851
ApepP | 1 | 78158 | 2799
mib2 | 1 | 74035 | 3663
tzn | 1 | 68445 | 2730
how | 1 | 1.09e5 | 7207
CG10591 | 1 | 78037 | 3891
CG14931 | 1 | 1.44e5 | 4619

14 of these entries, set out differently.
gene,reagent,"E2F firefly, rep 1","Renilla normaliser, rep 1"
Polr1F,1,1.04e5,4611
Cyp309a1,1,1.67e5,5544
CG7766,1,8208,652
CG9646,1,1.54e5,5239
Fpps,1,3343,189
mts,1,79811,3564
CG14301,1,1.45e5,7862
Hsp60A,1,8006,776
CG7239,1,68368,3272
mRpS18A,1,1.55e5,6953
CG12920,1,1.44e5,4953
m-cup,1,1.24e5,6126
CG12818,1,1.45e5,5851
ApepP,1,78158,2799

Continued:
gene | reagent | E2F firefly, rep 1 | Renilla normaliser, rep 1
Or7a | 1 | 1.11e5 | 5035
CG12003 | 1 | 1.06e5 | 4119
EMRE | 1 | 1.35e5 | 4468
CG17746 | 1 | 68677 | 3876
CG31534 (retired record) | 1 | 90018 | 3594
CG31534 (retired record) | 2 | 1.33e5 | 6182
TfIIFalpha | 1 | 67983 | 3686
RhoGEF3 | 1 | 1.01e5 | 4199
RhoGEF3 | 2 | 97833 | 4419
CG15743 | 1 | 1.25e5 | 5942
eIF2Balpha | 1 | 1707 | 964
CG10809 | 1 | 1.38e5 | 6722
Ube4B | 1 | 70252 | 3814
CG14395 | 1 | 1.37e5 | 6100
woc | 1 | 1540 | 992
noc | 1 | 77407 | 3687
CG12672 | 1 | 2.30e5 | 8166
Pstk + CG14210 + Tim9b | 1 | 1.16e5 | 5622
CG32551 | 1 | 67241 | 2491
CG15186 | 1 | 1.36e5 | 6599
CG2129 | 1 | 7694 | 780
Grl62c | 1 | 1.33e5 | 3901
Pi4KIIIalpha | 1 | 1.18e5 | 5843
fh | 1 | 62768 | 4755
l(3)mbn | 1 | 1.22e5 | 4111
e(y)2 | 1 | 1.17e5 | 6248
Gmer | 1 | 70415 | 3249
Cpsf5 | 1 | 68585 | 2716
CG1440 | 1 | 1.35e5 | 6084
Nup50 | 1 | 2623 | 219
CG14265 | 1 | 1.13e5 | 5522
CG30383 | 1 | 1.39e5 | 5952
CG4991 | 1 | 1.61e5 | 5079
CG14260 | 1 | 1.05e5 | 6293
alpha-Cat | 1 | 71013 | 3601
l(3)neo38 | 1 | 1.47e5 | 7080
l(3)neo38 | 2 | 1.47e5 | 6761
CG7747 | 1 | 62197 | 3392
Ptp99A | 1 | 79896 | 3209
Ptp99A | 2 | 88074 | 3232
Ptp99A | 3 | 1.34e5 | 6720
Ptp99A | 4 | 1.28e5 | 5901
Ptp99A | 5 | 1.33e5 | 6166
Deaf1 | 1 | 1.50e5 | 7361
CG34423 + Mthfs | 1 | 1.08e5 | 4577
CD98hc | 1 | 1.51e5 | 6830
CG18586 | 1 | 93542 | 3931
hob | 1 | 78940 | 3294
meigo | 1 | 1.17e5 | 6575
Hexo2 | 1 | 56356 | 4068
jef | 1 | 1.01e5 | 4668
